The other results are listed elsewhere or left out.
Key:
Experiment in all cases: log2 fold change, soluble protein after heating vs DMSO (PISA); higher = thermal stabilisation; K562 lysate, 10 uM; active = over 0.2 and 3.5 SD of the protein, either way, in both replicates (recomputed)
nilotinib = compound: Cc1cn(-c2cc(NC(=O)c3ccc(C)c(Nc4nccc(-c5cccnc5)n4)c3)cc(C(F)(F)F)c2)cn1 [nilotinib]
Method in brief: (§1)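 Log-two fold change in thermal stability relative to solvent controls is reported from duplicates. For each sample, crude K562 extract from dounce-homogenised pellets in PBS pH 7.4 with 1 mM MgCl2, at 1 mg/mL protein, was treated with 10 μM compound for 30 min. Aliquots heated for 3 min across 48°C-58°C were pooled, brought to 0.5% NP-40 at 4°C and cleared at 21,000xg for 90 min. The supernatant was quantified by TMTpro 16plex LC-MS/MS with channel sums equalised.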

Sequences of proteins named here, by UniProt entry; tags and fusion partners are left off. A change or cut given only in a name is not applied to a line headed by its entry.
UniProt Q6WKZ4: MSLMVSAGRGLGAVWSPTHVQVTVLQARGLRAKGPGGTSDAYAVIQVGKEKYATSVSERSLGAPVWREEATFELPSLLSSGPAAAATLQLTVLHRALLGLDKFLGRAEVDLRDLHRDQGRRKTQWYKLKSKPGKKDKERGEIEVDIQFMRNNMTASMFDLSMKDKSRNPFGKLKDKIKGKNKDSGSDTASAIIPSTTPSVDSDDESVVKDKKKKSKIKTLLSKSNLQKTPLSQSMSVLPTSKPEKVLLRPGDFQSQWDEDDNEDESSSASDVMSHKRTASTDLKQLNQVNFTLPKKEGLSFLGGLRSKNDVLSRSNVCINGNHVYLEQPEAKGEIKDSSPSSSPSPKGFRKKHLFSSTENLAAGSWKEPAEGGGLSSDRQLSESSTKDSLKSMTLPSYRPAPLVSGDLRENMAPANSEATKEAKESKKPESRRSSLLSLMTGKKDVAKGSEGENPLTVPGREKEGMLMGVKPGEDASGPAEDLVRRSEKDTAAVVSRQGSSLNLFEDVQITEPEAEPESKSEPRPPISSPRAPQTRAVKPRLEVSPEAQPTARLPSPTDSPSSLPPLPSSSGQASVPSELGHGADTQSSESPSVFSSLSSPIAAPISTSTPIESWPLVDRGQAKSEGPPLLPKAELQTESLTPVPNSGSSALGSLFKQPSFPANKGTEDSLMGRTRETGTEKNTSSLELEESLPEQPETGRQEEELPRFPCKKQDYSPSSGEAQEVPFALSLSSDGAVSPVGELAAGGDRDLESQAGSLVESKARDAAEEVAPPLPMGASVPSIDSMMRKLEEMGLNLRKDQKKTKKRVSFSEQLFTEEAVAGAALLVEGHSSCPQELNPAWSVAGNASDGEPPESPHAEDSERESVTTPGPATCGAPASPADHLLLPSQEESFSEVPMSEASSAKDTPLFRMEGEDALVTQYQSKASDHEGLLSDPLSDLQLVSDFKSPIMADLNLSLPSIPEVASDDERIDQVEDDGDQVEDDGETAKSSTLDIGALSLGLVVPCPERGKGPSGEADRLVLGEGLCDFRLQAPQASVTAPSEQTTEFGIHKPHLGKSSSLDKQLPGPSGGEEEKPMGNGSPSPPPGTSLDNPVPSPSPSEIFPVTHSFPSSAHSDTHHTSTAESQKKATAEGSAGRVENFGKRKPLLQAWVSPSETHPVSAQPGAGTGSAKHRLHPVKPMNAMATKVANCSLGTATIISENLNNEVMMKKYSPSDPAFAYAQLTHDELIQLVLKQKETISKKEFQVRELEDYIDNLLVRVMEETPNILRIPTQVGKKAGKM
UniProt P62820, whole entry, looked up: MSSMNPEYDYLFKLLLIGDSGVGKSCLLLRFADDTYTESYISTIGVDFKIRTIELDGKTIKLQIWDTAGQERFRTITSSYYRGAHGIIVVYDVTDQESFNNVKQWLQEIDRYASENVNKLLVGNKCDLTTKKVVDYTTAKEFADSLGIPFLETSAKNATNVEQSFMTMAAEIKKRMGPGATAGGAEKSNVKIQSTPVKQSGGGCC
UniProt Q96QF0: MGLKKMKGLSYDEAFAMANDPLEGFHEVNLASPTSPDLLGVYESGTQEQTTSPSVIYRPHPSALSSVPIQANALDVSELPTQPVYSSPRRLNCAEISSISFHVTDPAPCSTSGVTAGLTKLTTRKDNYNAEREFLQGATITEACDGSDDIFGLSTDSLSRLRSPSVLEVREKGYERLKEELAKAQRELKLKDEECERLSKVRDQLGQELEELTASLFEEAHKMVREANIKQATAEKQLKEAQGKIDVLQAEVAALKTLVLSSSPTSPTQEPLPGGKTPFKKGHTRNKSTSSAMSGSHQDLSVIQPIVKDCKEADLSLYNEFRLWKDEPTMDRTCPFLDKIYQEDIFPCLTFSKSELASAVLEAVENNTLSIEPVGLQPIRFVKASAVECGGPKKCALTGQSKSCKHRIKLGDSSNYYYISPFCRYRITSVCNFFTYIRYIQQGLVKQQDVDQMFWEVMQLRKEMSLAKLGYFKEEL
UniProt P61026: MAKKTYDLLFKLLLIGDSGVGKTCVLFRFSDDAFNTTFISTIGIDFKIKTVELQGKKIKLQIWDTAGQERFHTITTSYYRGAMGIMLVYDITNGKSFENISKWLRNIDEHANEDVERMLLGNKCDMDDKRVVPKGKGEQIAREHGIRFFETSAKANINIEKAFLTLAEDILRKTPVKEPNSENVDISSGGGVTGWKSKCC
UniProt Q53H96: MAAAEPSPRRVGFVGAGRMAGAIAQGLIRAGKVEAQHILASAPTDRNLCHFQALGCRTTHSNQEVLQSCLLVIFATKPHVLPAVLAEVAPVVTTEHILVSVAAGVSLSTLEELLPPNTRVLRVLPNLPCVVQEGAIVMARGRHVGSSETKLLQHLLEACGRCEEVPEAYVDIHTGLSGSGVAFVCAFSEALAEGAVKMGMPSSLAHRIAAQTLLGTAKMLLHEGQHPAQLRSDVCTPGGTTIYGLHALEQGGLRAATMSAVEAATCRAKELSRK
UniProt P47224: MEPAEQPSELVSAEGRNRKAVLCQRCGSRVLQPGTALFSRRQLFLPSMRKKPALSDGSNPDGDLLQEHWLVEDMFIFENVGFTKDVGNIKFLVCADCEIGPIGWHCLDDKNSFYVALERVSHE
UniProt Q9UL25: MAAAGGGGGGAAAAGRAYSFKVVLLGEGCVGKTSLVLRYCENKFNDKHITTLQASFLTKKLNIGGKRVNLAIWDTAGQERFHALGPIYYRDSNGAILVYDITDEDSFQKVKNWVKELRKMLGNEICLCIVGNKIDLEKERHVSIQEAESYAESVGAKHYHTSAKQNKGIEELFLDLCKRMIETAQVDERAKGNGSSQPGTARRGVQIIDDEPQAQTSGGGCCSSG
UniProt Q9H0R6: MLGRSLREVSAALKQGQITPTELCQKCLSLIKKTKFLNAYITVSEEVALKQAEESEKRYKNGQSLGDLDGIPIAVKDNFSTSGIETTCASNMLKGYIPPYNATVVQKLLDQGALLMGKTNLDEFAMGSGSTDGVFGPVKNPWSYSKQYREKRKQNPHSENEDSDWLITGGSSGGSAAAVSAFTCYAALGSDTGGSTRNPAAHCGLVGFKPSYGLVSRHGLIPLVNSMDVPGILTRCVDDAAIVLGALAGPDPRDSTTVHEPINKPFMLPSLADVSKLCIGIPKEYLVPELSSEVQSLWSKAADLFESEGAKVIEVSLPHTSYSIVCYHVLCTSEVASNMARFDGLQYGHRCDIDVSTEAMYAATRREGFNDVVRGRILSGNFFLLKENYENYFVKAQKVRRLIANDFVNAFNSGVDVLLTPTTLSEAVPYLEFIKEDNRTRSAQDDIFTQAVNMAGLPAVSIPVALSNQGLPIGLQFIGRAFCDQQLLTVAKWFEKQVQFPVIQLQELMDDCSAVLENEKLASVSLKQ
UniProt Q3YEC7: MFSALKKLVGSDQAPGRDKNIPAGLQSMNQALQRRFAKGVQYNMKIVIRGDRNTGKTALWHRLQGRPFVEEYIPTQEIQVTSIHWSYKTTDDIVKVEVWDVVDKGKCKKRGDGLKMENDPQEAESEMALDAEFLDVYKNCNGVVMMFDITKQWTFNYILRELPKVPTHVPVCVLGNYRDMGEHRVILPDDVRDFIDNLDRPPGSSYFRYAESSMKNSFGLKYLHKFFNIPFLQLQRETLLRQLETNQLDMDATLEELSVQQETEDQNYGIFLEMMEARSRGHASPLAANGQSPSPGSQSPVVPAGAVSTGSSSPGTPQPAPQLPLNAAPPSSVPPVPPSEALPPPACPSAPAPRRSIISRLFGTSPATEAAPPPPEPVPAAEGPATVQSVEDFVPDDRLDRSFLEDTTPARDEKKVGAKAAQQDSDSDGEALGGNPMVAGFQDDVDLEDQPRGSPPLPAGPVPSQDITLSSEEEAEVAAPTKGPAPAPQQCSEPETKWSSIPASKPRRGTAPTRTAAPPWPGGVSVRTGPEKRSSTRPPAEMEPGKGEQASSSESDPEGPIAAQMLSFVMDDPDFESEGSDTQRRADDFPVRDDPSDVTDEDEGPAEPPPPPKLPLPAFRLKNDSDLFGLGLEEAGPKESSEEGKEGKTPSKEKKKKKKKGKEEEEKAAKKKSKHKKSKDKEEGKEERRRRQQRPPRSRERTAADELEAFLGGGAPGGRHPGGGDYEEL
UniProt P78406: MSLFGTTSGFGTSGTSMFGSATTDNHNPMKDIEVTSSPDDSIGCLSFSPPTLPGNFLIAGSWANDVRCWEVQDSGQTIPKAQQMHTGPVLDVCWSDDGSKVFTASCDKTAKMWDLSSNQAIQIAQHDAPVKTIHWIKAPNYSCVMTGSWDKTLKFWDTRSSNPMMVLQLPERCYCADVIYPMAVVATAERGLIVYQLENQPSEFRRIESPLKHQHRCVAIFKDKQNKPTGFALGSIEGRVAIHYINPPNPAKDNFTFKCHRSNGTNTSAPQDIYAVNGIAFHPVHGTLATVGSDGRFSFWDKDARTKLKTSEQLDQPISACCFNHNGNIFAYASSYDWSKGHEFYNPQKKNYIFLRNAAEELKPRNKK
UniProt Q5HYI8: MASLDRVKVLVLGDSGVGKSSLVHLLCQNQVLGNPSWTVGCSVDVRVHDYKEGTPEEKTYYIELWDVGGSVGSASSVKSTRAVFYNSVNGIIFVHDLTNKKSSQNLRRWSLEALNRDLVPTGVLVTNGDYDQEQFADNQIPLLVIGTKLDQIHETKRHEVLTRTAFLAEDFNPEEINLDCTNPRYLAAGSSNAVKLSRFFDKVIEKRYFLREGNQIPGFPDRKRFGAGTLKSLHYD
UniProt P61020: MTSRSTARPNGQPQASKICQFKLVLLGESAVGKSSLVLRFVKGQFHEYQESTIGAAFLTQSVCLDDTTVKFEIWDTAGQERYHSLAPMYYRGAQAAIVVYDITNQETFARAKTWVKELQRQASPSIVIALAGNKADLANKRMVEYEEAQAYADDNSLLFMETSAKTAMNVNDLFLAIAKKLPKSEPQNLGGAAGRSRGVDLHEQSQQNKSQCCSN
UniProt Q9BXR0: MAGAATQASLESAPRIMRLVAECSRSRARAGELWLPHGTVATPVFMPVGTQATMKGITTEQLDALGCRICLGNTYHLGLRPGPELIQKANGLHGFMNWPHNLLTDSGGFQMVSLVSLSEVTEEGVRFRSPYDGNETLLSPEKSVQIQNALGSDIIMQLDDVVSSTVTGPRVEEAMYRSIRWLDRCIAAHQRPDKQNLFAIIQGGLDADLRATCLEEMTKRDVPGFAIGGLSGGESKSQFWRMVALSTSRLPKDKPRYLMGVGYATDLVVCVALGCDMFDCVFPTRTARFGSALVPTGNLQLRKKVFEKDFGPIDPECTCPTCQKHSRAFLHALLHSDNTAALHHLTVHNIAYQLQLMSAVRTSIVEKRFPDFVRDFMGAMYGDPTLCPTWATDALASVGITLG
UniProt Q7Z6M1: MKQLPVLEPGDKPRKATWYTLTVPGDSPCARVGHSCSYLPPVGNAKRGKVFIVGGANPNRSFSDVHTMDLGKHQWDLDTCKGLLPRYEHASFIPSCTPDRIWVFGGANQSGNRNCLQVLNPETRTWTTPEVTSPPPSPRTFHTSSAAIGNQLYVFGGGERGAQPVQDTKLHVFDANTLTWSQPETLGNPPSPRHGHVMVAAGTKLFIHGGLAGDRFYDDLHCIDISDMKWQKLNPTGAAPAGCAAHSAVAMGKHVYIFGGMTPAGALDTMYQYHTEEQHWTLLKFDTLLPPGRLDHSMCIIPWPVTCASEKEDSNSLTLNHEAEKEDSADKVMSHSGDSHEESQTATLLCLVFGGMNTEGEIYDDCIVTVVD
UniProt P61018: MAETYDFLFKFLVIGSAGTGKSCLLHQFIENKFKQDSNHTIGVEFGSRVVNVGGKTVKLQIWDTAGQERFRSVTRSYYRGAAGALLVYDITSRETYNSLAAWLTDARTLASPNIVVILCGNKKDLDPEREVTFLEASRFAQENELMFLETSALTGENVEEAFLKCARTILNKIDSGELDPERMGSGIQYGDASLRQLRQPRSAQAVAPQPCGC
UniProt Q6ZRP7: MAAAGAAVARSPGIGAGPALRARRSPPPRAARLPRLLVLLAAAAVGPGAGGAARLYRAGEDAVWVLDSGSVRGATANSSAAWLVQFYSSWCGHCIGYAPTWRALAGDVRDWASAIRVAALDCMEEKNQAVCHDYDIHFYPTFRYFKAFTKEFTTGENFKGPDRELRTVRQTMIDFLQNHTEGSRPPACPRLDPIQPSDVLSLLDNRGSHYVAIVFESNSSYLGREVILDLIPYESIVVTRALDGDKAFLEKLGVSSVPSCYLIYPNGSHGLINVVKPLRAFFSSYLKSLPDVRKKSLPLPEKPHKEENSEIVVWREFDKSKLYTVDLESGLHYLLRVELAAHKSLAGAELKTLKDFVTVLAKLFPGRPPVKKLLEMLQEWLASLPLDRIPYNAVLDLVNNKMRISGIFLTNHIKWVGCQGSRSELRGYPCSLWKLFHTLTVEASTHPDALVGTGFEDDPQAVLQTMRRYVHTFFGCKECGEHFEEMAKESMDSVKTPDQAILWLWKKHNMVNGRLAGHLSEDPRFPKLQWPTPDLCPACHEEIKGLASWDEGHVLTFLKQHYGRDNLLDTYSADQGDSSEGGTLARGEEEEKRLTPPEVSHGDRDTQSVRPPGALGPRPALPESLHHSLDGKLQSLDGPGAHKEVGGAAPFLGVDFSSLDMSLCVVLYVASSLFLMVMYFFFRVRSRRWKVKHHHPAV

[1] = compound: Cc1nc(Nc2n[nH]c3c2CN(C(=O)N[C@H](CN(C)C)c2ccccc2)C3(C)C)c2sccc2n1
Method in brief: as §1

dasatinib = compound: Cc1nc(Nc2ncc(C(=O)Nc3c(C)cccc3Cl)s2)cc(N2CCN(CCO)CC2)n1 [dasatinib]
Method in brief: as §1

[2] = compound: Cc1ncc(-c2ccnc(Nc3ccc(S(C)(=O)=O)cc3)n2)n1C(C)C
Method in brief: as §1

[3] = compound: Cn1cc(-c2ccc3c(c2)CCN3C(=O)Cc2cccc(C(F)(F)F)c2)c2c(N)ncnc21
Method in brief: as §1

quisinostat = compound: Cn1cc(CNCC2CCN(c3ncc(C(=O)NO)cn3)CC2)c2ccccc21 [quisinostat]
Method in brief: as §1

tipifarnib = compound: Cn1cncc1[C@@](N)(c1ccc(Cl)cc1)c1ccc2c(c1)c(-c1cccc(Cl)c1)cc(=O)n2C [tipifarnib]
Method in brief: as §1

[4] = compound: NC(=O)Nc1cc(-c2cccc(F)c2)sc1C(=O)N[C@H]1CCCNC1
Method in brief: as §1

[5] = compound: NC(=O)c1cnc(N[C@@H]2CCCC[C@@H]2N)nc1Nc1cccc(-n2nccn2)c1
Method in brief: as §1

[6] = compound: NC1(c2ccc(-c3nc4ccn5c(=O)[nH]nc5c4cc3-c3ccccc3)cc2)CCC1
Method in brief: as §1

Measured: log2 fold change

RAB11FIP1 (UniProt Q6WKZ4)
inactive: nilotinib 0.006 | [1] 0.019 | dasatinib 0.001 | [2] -0.003 | [3] -0.008 | quisinostat -0.005 | tipifarnib 0.003 | [4] -0.032 | [5] -0.002 | [6] -0.026

RAB1A (UniProt P62820)
inactive: nilotinib 0.041 | [1] 0.002 | dasatinib -0.033 | [2] -0.018 | [3] 0.002 | quisinostat 0.011 | tipifarnib -0.07 | [4] -0.031 | [5] -0.03 | [6] -0.015

RAB3IP (UniProt Q96QF0)
inactive: nilotinib -0.048 | [1] -0.027 | dasatinib -0.053 | [2] 0.021 | [3] -0.004 | quisinostat 0.03 | tipifarnib -0.022 | [4] -0.011 | [5] -0.014 | [6] 0.096

RAB7A (UniProt P51149)
inactive: nilotinib 0.032 | [1] -0.022 | dasatinib -0.022 | [2] -0.005 | [3] 0.001 | quisinostat 0.014 | tipifarnib -0.046 | [4] -0.02 | [5] -0.002 | [6] -0.018

PYCARD (UniProt Q9ULZ3)
inactive: nilotinib 0.004 | [1] 0.029 | dasatinib 0.045 | [2] 0.023 | [3] 0.015 | quisinostat 0.019 | tipifarnib 0 | [4] -0.034 | [5] 0.007 | [6] 0.022

RABEP1 (UniProt Q15276)
inactive: nilotinib 0.022 | [1] -0.01 | dasatinib 0.008 | [2] 0.011 | [3] -0.004 | quisinostat 0.004 | tipifarnib -0.011 | [4] -0.006 | [5] -0.004 | [6] 0.007

PYGL (UniProt P06737)
inactive: nilotinib 0.022 | [1] 0 | dasatinib 0.123 | [2] -0.008 | [3] 0.003 | quisinostat 0.011 | tipifarnib 0.018 | [4] -0.002 | [5] 0.009 | [6] 0.041

RAF1 isoform 2 (UniProt P04049)
inactive: nilotinib 0.054 | [1] -0.005 | dasatinib 0.169 | [2] -0.094 | [3] -0.022 | quisinostat -0.06 | tipifarnib -0.036 | [4] 0.063 | [5] -0.021 | [6] -0.008

RALB isoform 2 (UniProt P11234)
inactive: nilotinib 0.031 | [1] -0.006 | dasatinib -0.008 | [2] -0.009 | [3] -0.01 | quisinostat 0.035 | tipifarnib 0.005 | [4] -0.032 | [5] 0.016 | [6] 0.028

RAB10 (UniProt P61026)
inactive: nilotinib 0.034 | [1] -0.024 | dasatinib -0.006 | [2] -0.087 | [3] 0.003 | quisinostat 0.028 | tipifarnib -0.044 | [4] -0.019 | [5] -0.049 | [6] -0.023

PYCR3 (UniProt Q53H96)
inactive: nilotinib 0.025 | [1] 0.032 | dasatinib -0.009 | [2] 0.079 | [3] -0.015 | quisinostat -0.014 | tipifarnib -0.004 | [4] -0.041 | [5] -0.009 | [6] 0.028

RAB3IL1 (UniProt Q8TBN0)
inactive: nilotinib -0.025 | [1] -0.026 | dasatinib -0.048 | [2] 0.041 | [3] 0.017 | quisinostat -0.002 | tipifarnib 0.037 | [4] 0.004 | [5] 0.017 | [6] 0.033

RALA (UniProt P11233)
inactive: nilotinib -0.04 | [1] -0.001 | dasatinib 0.017 | [2] -0.04 | [3] -0.018 | quisinostat 0.004 | tipifarnib -0.041 | [4] 0.033 | [5] 0.038 | [6] -0.003

RABIF (UniProt P47224)
inactive: nilotinib -0.003 | [1] 0.021 | dasatinib 0.058 | [2] 0.002 | [3] 0 | quisinostat 0.024 | tipifarnib -0.007 | [4] -0.036 | [5] -0.033 | [6] 0.009

RAB21 (UniProt Q9UL25)
inactive: nilotinib 0.069 | [1] -0.036 | dasatinib 0.043 | [2] -0.017 | [3] -0.022 | quisinostat -0.023 | tipifarnib -0.051 | [4] 0.019 | [5] -0.017 | [6] -0.007

RAB3IL1 (UniProt E9PK89)
inactive: nilotinib -0.039 | [1] -0.124 | dasatinib 0.08 | [2] 0.003 | [3] -0.084 | quisinostat 0.027 | tipifarnib 0.061 | [4] -0.086 | [5] -0.012 | [6] 0.157

QRSL1 (UniProt Q9H0R6)
inactive: nilotinib -0.022 | [1] 0.031 | dasatinib -0.018 | [2] 0.069 | [3] 0.07 | quisinostat -0.054 | tipifarnib -0.002 | [4] 0.034 | [5] -0.02 | [6] -0.031

RAD1 (UniProt O60671)
inactive: nilotinib 0.029 | [1] -0.011 | dasatinib 0.008 | [2] 0.02 | [3] 0.02 | quisinostat -0.074 | tipifarnib -0.04 | [4] -0.013 | [5] -0.002 | [6] 0.051

RABL6 (UniProt Q3YEC7)
inactive: nilotinib -0.039 | [1] 0.022 | dasatinib 0.039 | [2] 0.017 | [3] 0.008 | quisinostat -0.022 | tipifarnib 0.003 | [4] -0.015 | [5] -0.016 | [6] -0.006

RAE1 (UniProt P78406)
inactive: nilotinib -0.093 | [1] 0.042 | dasatinib 0.002 | [2] 0.012 | [3] 0.033 | quisinostat 0.038 | tipifarnib -0.053 | [4] 0.026 | [5] 0.024 | [6] 0.015

RABL3 (UniProt Q5HYI8)
inactive: nilotinib 0.049 | [1] -0.03 | dasatinib -0.077 | [2] -0.051 | [3] 0.01 | quisinostat -0.056 | tipifarnib 0.08 | [4] 0.084 | [5] -0.003 | [6] 0.267

RAB5B (UniProt P61020)
inactive: nilotinib 0.045 | [1] -0.004 | dasatinib -0.038 | [2] 0.022 | [3] -0.008 | quisinostat -0.009 | tipifarnib -0.075 | [4] 0.026 | [5] -0.003 | [6] -0.043

RAP1GAP isoform 4 (UniProt P47736)
inactive: nilotinib -0.002 | [1] -0.015 | dasatinib 0 | [2] 0.017 | [3] 0.028 | quisinostat -0.046 | tipifarnib -0.013 | [4] 0.029 | [5] -0.021 | [6] -0.034

RAD51C (UniProt O43502)
inactive: nilotinib 0.013 | [1] 0.021 | dasatinib -0.014 | [2] 0.009 | [3] -0.019 | quisinostat 0.036 | tipifarnib 0.03 | [4] 0.051 | [5] 0.042 | [6] -0.021

QTRT1 (UniProt Q9BXR0)
inactive: nilotinib 0.004 | [1] 0.024 | dasatinib -0.004 | [2] -0.005 | [3] -0.019 | quisinostat 0.02 | tipifarnib 0.07 | [4] 0.007 | [5] 0.01 | [6] -0.01

RABEPK (UniProt Q7Z6M1)
inactive: nilotinib -0.003 | [1] 0.005 | dasatinib 0.005 | [2] -0.01 | [3] 0.012 | quisinostat 0.004 | tipifarnib 0.007 | [4] -0.018 | [5] 0.013 | [6] 0.002

Two records picked at random from those above, as already listed:
RAB7A (UniProt P51149)
inactive: nilotinib 0.032 | [1] -0.022 | dasatinib -0.022 | [2] -0.005 | [3] 0.001 | quisinostat 0.014 | tipifarnib -0.046 | [4] -0.02 | [5] -0.002 | [6] -0.018

PYCR3 (UniProt Q53H96)
inactive: nilotinib 0.025 | [1] 0.032 | dasatinib -0.009 | [2] 0.079 | [3] -0.015 | quisinostat -0.014 | tipifarnib -0.004 | [4] -0.041 | [5] -0.009 | [6] 0.028

Further records:

RAB1B (UniProt Q9H0U4)
inactive: nilotinib 0.016 | [1] 0.003 | dasatinib -0.058 | [2] -0.029 | [3] -0.001 | quisinostat 0.016 | tipifarnib -0.04 | [4] -0.052 | [5] -0.041 | [6] 0.002

RAB4B isoform 2 (UniProt P61018)
inactive: nilotinib 0.026 | [1] 0.017 | dasatinib -0.064 | [2] -0.017 | [3] 0.255 | quisinostat 0 | tipifarnib -0.08 | [4] -0.002 | [5] 0.011 | [6] 0.021

QSOX2 (UniProt Q6ZRP7)
inactive: nilotinib 0.025 | [1] -0.049 | dasatinib -0.001 | [2] -0.019 | [3] -0.001 | quisinostat 0.044 | tipifarnib -0.015 | [4] -0.016 | [5] -0.041 | [6] 0.008

PXMP2 (UniProt Q9NR77)
inactive: nilotinib 0.023 | [1] -0.018 | dasatinib -0.007 | [2] -0.003 | [3] -0.017 | quisinostat 0.012 | tipifarnib -0.033 | [4] -0.041 | [5] 0.003 | [6] -0.023

From the supplement of paper PMC10849652
